The values below come from paper doi:10.1101/2024.06.26.24309360.

Substitutions are numbered along the chain they refer to. For at least one entry, the source does not settle the construct or the ends of the probe. Where cells or extracts were used, other partners may take part. Protein sequences can lack the tags named with them.

For series [1], the target named is T1, ThPOK K360N (Homo sapiens) (UniProt O15156).
T1 sequence (looked up, limits assumed): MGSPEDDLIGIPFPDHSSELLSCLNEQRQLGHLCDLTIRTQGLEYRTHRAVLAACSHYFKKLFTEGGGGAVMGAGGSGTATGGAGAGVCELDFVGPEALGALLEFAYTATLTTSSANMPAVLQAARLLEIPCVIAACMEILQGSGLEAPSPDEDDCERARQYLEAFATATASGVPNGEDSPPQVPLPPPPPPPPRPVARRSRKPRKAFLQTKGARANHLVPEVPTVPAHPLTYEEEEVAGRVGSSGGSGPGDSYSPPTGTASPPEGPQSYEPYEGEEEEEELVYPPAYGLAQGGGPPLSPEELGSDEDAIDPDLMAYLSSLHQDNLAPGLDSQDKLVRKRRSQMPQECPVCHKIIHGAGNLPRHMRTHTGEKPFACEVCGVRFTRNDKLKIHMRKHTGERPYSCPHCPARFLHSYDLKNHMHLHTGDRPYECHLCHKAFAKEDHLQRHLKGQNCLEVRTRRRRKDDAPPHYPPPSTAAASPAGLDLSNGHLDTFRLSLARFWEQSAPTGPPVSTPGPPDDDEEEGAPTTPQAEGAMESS
Kind of series: EMSA. The settings on record: protein in a lysate after overexpression.

In another series the target is T2, ThPOK WT (Homo sapiens) (UniProt O15156).
T2 sequence (looked up, limits assumed): T1 sequence (looked up, limits assumed) with N360K
Kind of series: EMSA supershift. The settings on record: anti-ThPOK antibody supershift; protein in a lysate after overexpression. (In general: In EMSA bound probe runs differently from free probe, usually more slowly.)

On to “CAAATTACAGCCCCATCCCCCGACCGCCCACCATC (double strand) [Variant Probe 1]”, for which the binding result in series [1] is reported as “binds”.

On to “CAAATTACAGCCCCCTCCACCGACCGCCCACCATC (double strand) [Variant Probe 2]”, for which the binding result in series [1] was “binds”.

On to “CAAATTACAGCCCCGACCACCGACCGCCCACCATC (double strand) [SOCS1 promoter probe]”, for which the binding result in the series with ThPOK WT (Homo sapiens) is “binds”.
